This series concerns Macrophages. Briefly: RNA sequencing of IL4-trained macrophages. It counts as cell-based, human. The settings on record: before and after LPS re-stimulation on day 6.

Results on 1 substance are retold here after US20240391978A1, “APOLIPOPROTEIN FUSION PROTEINS FOR CELL-SPECIFIC IMMUNE REGULATION” (BIO-TRIP B.V., priority 2021, published 2024).

Take IL4: recombinant human interleukin 4: the “genes attenuated in IL4-trained macrophages” value turned out to be 249 genes and the “genes more strongly induced ('upregulated') in IL4-trained macrophages” value worked out at 140 genes.
